Some results were stated once for a whole list of compounds, not compound by compound. Starred links: 1 amine or outer side, 2 acyl side, 3 side chain; linkers in the order of their positions; H or OH if unused. Positions of bridges follow the written chain, without caps; N, C: chain ends. Non-standard residues stand in square brackets, D forms with d. Residues, ends and D or L forms follow the SMILES beside them. *: point of attachment. Bip(4'-NHCO-C6H4-3-CH2COOH) = N[C@@H](Cc1ccc(-c2ccc(NC(=O)c3cccc(CC(=O)O)c3)cc2)cc1)C(=O)O; Bip(4'-NHCO-C6H4-4-CH2COOH) = N[C@@H](Cc1ccc(-c2ccc(NC(=O)c3ccc(CC(=O)O)cc3)cc2)cc1)C(=O)O; Bip(4'-NH) = O=C([C@H](Cc1ccc(-c2ccc(N[*:3])cc2)cc1)N[*:1])[*:2]; Bip(4'-COOH) = N[C@@H](Cc1ccc(-c2ccc(C(=O)O)cc2)cc1)C(=O)O; dArg(ω-Bn) = N=C(NCCC[C@@H](N)C(=O)O)NCc1ccccc1; Ala(morpholin-4-yl) = N[C@@H](CN1CCOCC1)C(=O)O; Benzoyl(3-OCH2COOH) = O=C(O)COc1cccc(C(=O)*)c1; Cha = N[C@@H](CC1CCCCC1)C(=O)O; Tle = CC(C)(C)[C@H](N)C(=O)O; Sar = CNCC(=O)O
target: TNFα (Homo sapiens, UniProt P01375); assay: TNF-Induced HEK-Blue Assay; format: cell-based; conditions: summary statement for all examples; read-out: IC50 values measured in the TNF induced HEK-Blue assay

The chains behind the UniProt entries cited, without tags or fusion partners. Residues count along the entry.
UniProt P01375, 77-233 limits assumed: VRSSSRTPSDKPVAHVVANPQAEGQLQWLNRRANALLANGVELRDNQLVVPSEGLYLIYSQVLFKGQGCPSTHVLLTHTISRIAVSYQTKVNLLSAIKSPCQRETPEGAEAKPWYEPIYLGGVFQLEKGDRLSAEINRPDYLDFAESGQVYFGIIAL

IC50, ≤ 25 µM:
CC[C@H](C)[C@@H]1NC(=O)[C@@H](CCCNC(=N)N)NC(=O)[C@H](CC(=O)O)NC(=O)[C@@H]2CCCN2C(=O)CN(C)C(=O)[C@H](Cc2ccc(-c3ccc(NC(=O)c4cccc(CC(=O)O)c4)cc3)cc2)NC(=O)[C@H](Cc2ccc(-c3ccc(C(=O)O)cc3)cc2)NC(=O)[C@H](C(C)(C)C)NC(=O)CSC[C@@H](C(=O)NCC(N)=O)NC(=O)[C@H](CC(C)C)NC(=O)[C@H](Cc2cnc[nH]2)NC(=O)[C@H](C(C)C)NC(=O)[C@@H]2CCCN2C1=O [Example 575] ({CH2CO}-[Tle][Bip(4'-COOH)][Bip(4'-NHCO-C6H4-3-CH2COOH)][Sar]PD[dR]IPVHLCG-NH2; thioether N-13)
CC[C@H](C)[C@@H]1NC(=O)[C@@H](CCCNC(=N)N)NC(=O)[C@H](CC(=O)O)NC(=O)[C@@H]2CCCN2C(=O)CN(C)C(=O)[C@H](Cc2ccc(-c3ccc(NC(=O)c4ccc(CC(=O)O)cc4)cc3)cc2)NC(=O)[C@H](Cc2ccc(-c3ccc(C(=O)O)cc3)cc2)NC(=O)[C@H](C(C)(C)C)NC(=O)CSC[C@@H](C(=O)NCC(N)=O)NC(=O)[C@H](CC(C)C)NC(=O)[C@H](Cc2cnc[nH]2)NC(=O)[C@H](C(C)C)NC(=O)[C@@H]2CCCN2C1=O [Example 576] ({CH2CO}-[Tle][Bip(4'-COOH)][Bip(4'-NHCO-C6H4-4-CH2COOH)][Sar]PD[dR]IPVHLCG-NH2; thioether N-13)
CC[C@H](C)[C@@H]1NC(=O)[C@@H](CCCNC(=N)N)NC(=O)[C@H](CC(=O)O)NC(=O)[C@@H]2CCCN2C(=O)CN(C)C(=O)[C@H](Cc2ccc(-c3ccc(NC(=O)c4cccc(OCC(=O)O)c4)cc3)cc2)NC(=O)[C@H](Cc2ccc(-c3ccc(C(=O)O)cc3)cc2)NC(=O)[C@H](CN2CCOCC2)NC(=O)CSC[C@@H](C(=O)NCC(N)=O)NC(=O)[C@H](CC(C)C)NC(=O)[C@H](Cc2cnc[nH]2)NC(=O)[C@H](C(C)C)NC(=O)[C@@H]2CCCN2C1=O [Example 577] ({CH2CO}-[Ala(morpholin-4-yl)][Bip(4'-COOH)][Bip(4'-NH)](Benzoyl(3-OCH2COOH))[Sar]PD[dR]IPVHLCG-NH2; thioether N-13)
CC[C@H](C)[C@@H]1NC(=O)[C@@H](CCCNC(=N)N)NC(=O)[C@H](CC(=O)O)NC(=O)[C@@H]2CCCN2C(=O)CN(C)C(=O)[C@H](Cc2ccc(-c3ccc(NC(=O)c4cccc(CC(=O)O)c4)cc3)cc2)NC(=O)[C@H](Cc2ccc(-c3ccc(C(=O)O)cc3)cc2)NC(=O)[C@H](CN2CCOCC2)NC(=O)CSC[C@@H](C(=O)NCC(N)=O)NC(=O)[C@H](CC(C)C)NC(=O)[C@H](Cc2cnc[nH]2)NC(=O)[C@H](C(C)C)NC(=O)[C@@H]2CCCN2C1=O [Example 578] ({CH2CO}-[Ala(morpholin-4-yl)][Bip(4'-COOH)][Bip(4'-NHCO-C6H4-3-CH2COOH)][Sar]PD[dR]IPVHLCG-NH2; thioether N-13)
CC(C)C[C@@H]1NC(=O)[C@H](Cc2ccc(O)cc2)NC(=O)[C@H](C(C)C)NC(=O)[C@@H]2CCCN2C(=O)[C@H](C(C)C)NC(=O)[C@@H](CCCNC(=N)NCc2ccccc2)NC(=O)[C@H](CC(=O)O)NC(=O)[C@@H]2CCCN2C(=O)CN(C)C(=O)[C@H](Cc2ccc(-c3ccc(NC(=O)c4ccc(CC(=O)O)cc4)cc3)cc2)NC(=O)[C@H](Cc2ccc(-c3ccc(C(=O)O)cc3)cc2)NC(=O)[C@H](CC2CCCCC2)NC(=O)CSC[C@@H](C(=O)NCC(N)=O)NC1=O [Example 582] ({CH2CO}-[Cha][Bip(4'-COOH)][Bip(4'-NHCO-C6H4-4-CH2COOH)][Sar]PD[dArg(ω-Bn)]VPVYLCG-NH2; thioether N-13)
